Data from patent US7629334B1, “Mesoprogrestins (progesterone receptor modulations) as a component of compositions for hormone replacement therapy (HRT)” (Bayer Schering Pharma Aktiengesellschaft, priority 1999, dated 2009).
At least one structure is not confirmed: it was looked up by name or label, or the drawing left a doubt.

Biological target: T1, progesterone receptor (PR) (Oryctolagus cuniculus, UniProt P06186)
T1 construct: was evaluated in estradiol-primed juvenile rabbits after 4 days of subcutaneous (s.c.) treatment; from tissue; host or cells: endometrium of estradiol-primed juvenile rabbits, in vivo
T1 sequence (P06186 1-930): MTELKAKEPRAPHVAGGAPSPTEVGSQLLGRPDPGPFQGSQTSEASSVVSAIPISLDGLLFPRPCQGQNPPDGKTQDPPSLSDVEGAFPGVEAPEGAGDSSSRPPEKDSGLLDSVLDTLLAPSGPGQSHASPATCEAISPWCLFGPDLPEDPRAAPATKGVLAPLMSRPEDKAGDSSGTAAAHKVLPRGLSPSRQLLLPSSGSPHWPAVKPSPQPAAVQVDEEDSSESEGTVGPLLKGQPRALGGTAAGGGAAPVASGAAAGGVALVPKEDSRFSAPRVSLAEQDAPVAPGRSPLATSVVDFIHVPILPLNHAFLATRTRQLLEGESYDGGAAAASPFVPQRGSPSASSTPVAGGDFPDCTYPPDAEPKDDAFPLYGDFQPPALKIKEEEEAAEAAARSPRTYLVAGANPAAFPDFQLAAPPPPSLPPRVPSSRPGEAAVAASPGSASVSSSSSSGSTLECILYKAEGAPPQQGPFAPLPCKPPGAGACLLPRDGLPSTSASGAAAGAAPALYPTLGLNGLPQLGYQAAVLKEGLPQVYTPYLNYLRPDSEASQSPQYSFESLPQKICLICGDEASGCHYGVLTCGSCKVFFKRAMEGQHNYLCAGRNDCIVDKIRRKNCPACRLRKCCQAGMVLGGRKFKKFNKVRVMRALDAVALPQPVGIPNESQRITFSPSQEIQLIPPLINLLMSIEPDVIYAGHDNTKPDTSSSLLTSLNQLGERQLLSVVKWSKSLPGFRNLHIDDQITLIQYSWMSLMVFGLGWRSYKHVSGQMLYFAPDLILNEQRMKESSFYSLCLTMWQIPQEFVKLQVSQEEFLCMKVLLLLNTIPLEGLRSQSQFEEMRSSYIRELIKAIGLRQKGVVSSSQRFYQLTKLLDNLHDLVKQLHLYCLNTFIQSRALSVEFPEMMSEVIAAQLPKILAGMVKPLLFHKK
Assay: McPhail test, PR antagonistic properties in estradiol-primed juvenile rabbits in the presence of progesterone
Format: in vivo
Conditions: 4 days s.c., progesterone 1 mg/rabbit s.c.

## CC#C[C@]1(O)CC[C@H]2[C@@H]3CCC4=CC(=O)CCC4=C3[C@@H](c3ccc(N(C)C)cc3)C[C@@]21C [RU 486, reference compound]
  dose of first antiprogestagenic effect: 0.3-1 mg mg/rabbit
